This is one part of the list.
Columns and labels:
Experiment in all cases: glycan array binding signal (z-score within array); higher = stronger binding
Conditions in all cases: glycan notation: IUPAC condensed, linker removed
[1] = molecular target: GlcNAc(b1-4)GlcNAc(b1-4)GlcNAc(b1-4)GlcNAc(b1-4)GlcNAc(b1-4)GlcNAc
In short: (§1)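 The Consortium for Functional Glycomics database supplied 3228 glycan arrays, of which those lacking an available protein sequence were dropped. The binding signal, a within-array Z-score, was averaged across arrays of the same protein sequence and across linkers. Negative scores can be read as non-binding.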

[2] = molecular target: GlcNAc(b1-4)[GlcNAc(b1-6)]GalNAc
In short: as §1

[3] = molecular target: GlcNAc(b1-6)Gal(b1-4)GlcNAc
In short: as §1

GlcNAc(b1-6)GalNAc = molecular target: GlcNAc(b1-6)GalNAc
In short: as §1

[4] = molecular target: GlcNAc6S(b1-3)Gal(b1-4)GlcNAc
In short: as §1

Kdn(a2-3)Gal(b1-3)GalNAc = molecular target: Kdn(a2-3)Gal(b1-3)GalNAc
In short: as §1

Kdn(a2-3)Gal(b1-3)GlcNAc = molecular target: Kdn(a2-3)Gal(b1-3)GlcNAc
In short: as §1

Kdn(a2-3)Gal(b1-4)Glc = molecular target: Kdn(a2-3)Gal(b1-4)Glc
In short: as §1

Kdn(a2-3)Gal(b1-4)GlcNAc = molecular target: Kdn(a2-3)Gal(b1-4)GlcNAc
In short: as §1

[5] = molecular target: Kdn(a2-3)Gal(b1-4)[Fuc(a1-3)]GlcNAc
In short: as §1

Kdn(a2-6)Gal(b1-4)GlcNAc = molecular target: Kdn(a2-6)Gal(b1-4)GlcNAc
In short: as §1

[6] = molecular target: Man(a1-2)Man(a1-2)Man(a1-3)Man
In short: as §1

[7] = molecular target: Man(a1-2)Man(a1-2)Man(a1-6)[Man(a1-3)]Man
In short: as §1

Man(a1-2)Man(a1-3)Man = molecular target: Man(a1-2)Man(a1-3)Man
In short: as §1

[8] = molecular target: Man(a1-2)Man(a1-3)[Man(a1-2)Man(a1-6)]Man
In short: as §1

[9] = molecular target: Man(a1-2)Man(a1-3)[Man(a1-2)Man(a1-6)]Man(a1-6)[Man(a1-2)Man(a1-2)Man(a1-3)]Man
In short: as §1

[10] = molecular target: Man(a1-2)Man(a1-3)[Man(a1-2)Man(a1-6)]Man(a1-6)[Man(a1-2)Man(a1-2)Man(a1-3)]Man(b1-4)GlcNAc(b1-4)GlcNAc
In short: as §1

[11] = molecular target: Man(a1-2)Man(a1-3)[Man(a1-6)]Man(a1-6)[Man(a1-2)Man(a1-3)]Man(b1-4)GlcNAc(b1-4)GlcNAc
In short: as §1

[12] = molecular target: Man(a1-2)Man(a1-6)[Man(a1-3)]Man(a1-6)[Man(a1-2)Man(a1-2)Man(a1-3)]Man
In short: as §1

[13] = molecular target: Man(a1-2)Man(a1-6)[Man(a1-3)]Man(a1-6)[Man(a1-2)Man(a1-2)Man(a1-3)]Man(b1-4)GlcNAc(b1-4)GlcNAc
In short: as §1

Man(a1-3)[Man(a1-6)]Man = molecular target: Man(a1-3)[Man(a1-6)]Man
In short: as §1

[14] = molecular target: Man(a1-3)[Man(a1-6)]Man(a1-6)[Man(a1-2)Man(a1-3)]Man(b1-4)GlcNAc(b1-4)GlcNAc
In short: as §1

[15] = molecular target: Man(a1-3)[Man(a1-6)]Man(a1-6)[Man(a1-3)]Man
In short: as §1

[16] = molecular target: Man(a1-3)[Man(a1-6)]Man(a1-6)[Man(a1-3)]Man(b1-4)GlcNAc(b1-4)GlcNAc
In short: as §1

[17] = molecular target: Man(a1-3)[Man(a1-6)]Man(b1-4)GlcNAc(b1-4)GlcNAc
In short: as §1

[18] = molecular target: Man(a1-3)[Man(a1-6)]Man(b1-4)GlcNAc(b1-4)[Fuc(a1-6)]GlcNAc
In short: as §1

Man(a1-6)Man = molecular target: Man(a1-6)Man
In short: as §1

Man(b1-4)GlcNAc = molecular target: Man(b1-4)GlcNAc
In short: as §1

MurNAc(b1-4)GlcNAc = molecular target: MurNAc(b1-4)GlcNAc
In short: as §1

Neu5Ac(a2-3)Gal = molecular target: Neu5Ac(a2-3)Gal
In short: as §1

[19] = molecular target: Neu5Ac(a2-3)Gal(b1-3)GalNAc
In short: as §1

[20] = molecular target: Neu5Ac(a2-3)Gal(b1-3)GalNAc(b1-3)Gal(a1-4)Gal(b1-4)Glc
In short: as §1

[21] = molecular target: Neu5Ac(a2-3)Gal(b1-3)GalNAc(b1-4)Gal(b1-4)Glc
In short: as §1

[22] = molecular target: Neu5Ac(a2-3)Gal(b1-3)GalNAc(b1-4)[Neu5Ac(a2-3)]Gal(b1-4)Glc
In short: as §1

[23] = molecular target: Neu5Ac(a2-3)Gal(b1-3)GalNAc(b1-4)[Neu5Ac(a2-8)Neu5Ac(a2-3)]Gal(b1-4)Glc
In short: as §1

[24] = molecular target: Neu5Ac(a2-3)Gal(b1-3)GalNAc6S
In short: as §1

[25] = molecular target: Neu5Ac(a2-3)Gal(b1-3)GlcNAc
In short: as §1

B1: B936 (Bifidobacterium sp) (protein)
chain: MKNWKKAIALVASAAALVSVAACGPSNAGGSSDSGKKTVGFVAVGPEGGFRTANEKDIQKAFEDAGFDLTYSPTQNNDQQKQIQAFNKFVNDEVDAIILSSTEDSGWDDSLKKAAEAEIPVFTVDRNVDVKDAEAKKAIVAHIGPSNVWCGEQAAEFVNKNFPDGANGFILEGPAGLSVVKDRGTGWGNKVASNVKVLESQSANWSTDEAKTVTAGLLDKYKSDNPQFIFAQNDEMGLGAAQAVDAAGLKGKVKIITIDGTKNALQALVDGDLSYVIEYNPIFGKETAQAVKDYLDGKTVEKDIEIESKTFDAASAKEALDNNTRAY
glycan array binding signal (z-score) [1]: -0.697 | glycan array binding signal (z-score) [2]: -0.262 | glycan array binding signal (z-score) [3]: -0.106 | glycan array binding signal (z-score) (GlcNAc(b1-6)GalNAc): -0.294 | glycan array binding signal (z-score) [4]: -0.129 | glycan array binding signal (z-score) (Kdn(a2-3)Gal(b1-3)GalNAc): -0.17 | glycan array binding signal (z-score) (Kdn(a2-3)Gal(b1-3)GlcNAc): -0.332 | glycan array binding signal (z-score) (Kdn(a2-3)Gal(b1-4)Glc): -0.77 | glycan array binding signal (z-score) (Kdn(a2-3)Gal(b1-4)GlcNAc): -0.504 | glycan array binding signal (z-score) [5]: -0.769 | glycan array binding signal (z-score) (Kdn(a2-6)Gal(b1-4)GlcNAc): -0.344 | glycan array binding signal (z-score) [6]: -0.385 | glycan array binding signal (z-score) [7]: -0.504 | glycan array binding signal (z-score) (Man(a1-2)Man(a1-3)Man): 0.49 | glycan array binding signal (z-score) [8]: -1.34 | glycan array binding signal (z-score) [9]: 0.811 | glycan array binding signal (z-score) [10]: -0.362 | glycan array binding signal (z-score) [11]: -0.684 | glycan array binding signal (z-score) [12]: -0.919 | glycan array binding signal (z-score) [13]: -1.1 | glycan array binding signal (z-score) (Man(a1-3)[Man(a1-6)]Man): -0.318 | glycan array binding signal (z-score) [14]: -0.253 | glycan array binding signal (z-score) [15]: 0.034 | glycan array binding signal (z-score) [16]: -0.905 | glycan array binding signal (z-score) [17]: -0.27 | glycan array binding signal (z-score) [18]: 0.483 | glycan array binding signal (z-score) (Man(a1-6)Man): 0.717 | glycan array binding signal (z-score) (Man(b1-4)GlcNAc): 0.187 | glycan array binding signal (z-score) (MurNAc(b1-4)GlcNAc): -0.486 | glycan array binding signal (z-score) (Neu5Ac(a2-3)Gal): -0.249 | glycan array binding signal (z-score) [19]: -0.446 | glycan array binding signal (z-score) [20]: 1.19 | glycan array binding signal (z-score) [21]: 0.147 | glycan array binding signal (z-score) [22]: 0.888 | glycan array binding signal (z-score) [23]: -0.073 | glycan array binding signal (z-score) [24]: -0.408 | glycan array binding signal (z-score) [25]: 0.032
